Test results reported in PubChem BioAssay (NCATS).
This list was built around the results that the source calls inconclusive (neither active nor inactive); the mix of calls is not that of the screen. Potencies of inconclusive entries are doubtful fits and often do not repeat. Activity calls are given as the source filed them. Calls follow the shape of the dose curve; as a rule, active = well fitted activation curve with a large enough effect; inconclusive = small, poorly fitted or top-dose-only effect, or another doubt; inactive = no such curve, though single readings can be large or run the other way.

Biological target: Rap guanine nucleotide exchange factor 3 (Homo sapiens) (UniProt O95398)
Assay: Counterscreen qHTS for agonist of cAMP-regulated guanine nucleotide exchange factor 3 (EPAC1) (AID 1645889); also: nearly all actives have a fitted effect of over 40% in size; as to activation: % of control where 0% means no effect
Conditions: EPAC1 Rap1B-BODIPY-GDP exchange, fluorescence; activation: at 154 µM (top of the series) unless noted
Outline: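 Rap1B–BODIPY-GDP (250 nM) with 50 uM GDP; compounds pin-transferred to 9.74 nM–152 uM final (activator) or from 7.32 nM upwards (inhibitor). Fluorescence Ex/Em 480/540 nm read at 5 and 30 min, then after adding cAMP or buffer, at room temperature.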
Potency is read from the fitted curve at half-maximal effect.

Row | Compound | Potency | activation
1 | CCOc1ccc(-n2c(=O)[nH]cc(C(=O)Nc3ccc(OC)c(OC)c3)c2=O)cc1 | inconclusive: 35.5 nM [activator, full curve, poor fit] | 
2 | COc1ccc(C2CC(=O)Oc3ccc(OC)cc32)cc1 (stereo not given) | inconclusive: 178 nM [activator, full curve, poor fit] | 
3 | C=CCn1cc(C(=O)NCCCOC)c(=O)c2cc(S(=O)(=O)N(CC)CC)ccc21 | inactive | 
4 | COc1ccc(S(=O)(=O)N2CCOC23CCN(S(=O)(=O)c2cc(F)ccc2F)CC3)cc1 |  | inconclusive: 49.7% [activator] [at 30.8 µM]
5 | CC(C)Cc1csc(NC(=O)c2ccc(Cl)cc2)c1C(=O)O |  | inconclusive: 48% [activator] [at 30.8 µM]
6 | COc1ccc(Br)cc1CN(C)C(=O)c1ccccc1OCc1c(C)noc1C |  | inconclusive: 32.5% [activator]
7 | Cc1cc(Nc2ncc(Cl)cc2Cl)n(-c2ccccc2C)n1 | inactive | 
8 | Cc1ccnc(NS(=O)(=O)c2ccc(NC(=O)Cc3c(F)cccc3Cl)cc2)n1 | inconclusive: 158 nM [activator, full curve, poor fit] | 
9 | COCCCn1c(-c2ccccc2)nc2ccccc2c1=O |  | inconclusive: 35.9% [activator]
10 | COc1cccc(CNC(=O)CCCn2nc(C)c3c(C)n(-c4ccc(C)cc4)nc3c2=O)c1OC |  | inconclusive: 52.6% [activator]
11 | CCOC(=O)c1c(-c2ccc(OC)cc2)csc1/N=C/C1=C(O)CCCC1=O |  | inactive: 11.3% [at 30.8 µM]
12 | COC(=O)c1cn(C(=O)c2ccc(OC)c(OC)c2)c2ccccc12 | inconclusive: 891 nM [activator, full curve, poor fit] | 
13 | COc1cccc(Cn2c(=O)cc(C)c3c(C)nn(C)c32)c1 |  | inconclusive: 33.1% [activator]
14 | CC1(C)CC(=O)C=C(c2ccc(F)cc2OCc2ccccc2)C1 | inconclusive: 501 nM [activator, full curve, poor fit] | 
15 | Cc1cccc(-n2nc(C)c(C(=O)Nc3cc(C)ccc3C)c2-n2cccc2)c1 |  | inconclusive: 39.2% [activator]
16 | COc1cc2c(cc1OC)C(c1ccccc1Cl)N(C)CC2 (stereo not given) |  | inactive: 9.1% [at 30.8 µM]
17 | COc1ccc(OC)c(Nc2ncc3c(n2)CCN(Cc2cc(OC)c(OC)c(OC)c2)C3)c1 |  | inconclusive: 55.1% [activator]
18 | CCOC(=O)C1=CCN(S(=O)(=O)c2ccc(C)cc2)C1c1cccs1 (stereo not given) |  | inactive: 22.8% [at 30.8 µM]
19 | CCCCn1c(CN2CCOCC2)nc2c1c(=O)n(C)c(=O)n2C | inconclusive: 7940 nM [activator, partial curve, poor fit] | 
20 | CN1C2CC(OC(=O)C(CO)c3ccccc3)CC1C1OC12 (stereo not given) |  | inactive: 0.0134% [at 30.8 µM]

From compound 12 up to 13, as listed above:
Row | Compound | Potency | activation
12 | COC(=O)c1cn(C(=O)c2ccc(OC)c(OC)c2)c2ccccc12 | inconclusive: 891 nM [activator, full curve, poor fit] | 
13 | COc1cccc(Cn2c(=O)cc(C)c3c(C)nn(C)c32)c1 |  | inconclusive: 33.1% [activator]

More structures follow.

Row | Compound | Potency | activation
21 | COCCCn1c(=N)c(C(=O)NCc2cccnc2)cc2c(=O)n3cc(C)ccc3nc21 | inconclusive: 79400 nM [activator, single point] | 
22 | O=CN1N=C(c2ccccc2)CC1c1ccc(Cl)cc1 (stereo not given) | inactive | 
23 | CCN1C(=O)/C(=C/c2ccc(N3CCCC3)cc2)NC1=S | inconclusive: 15.8 nM [activator, full curve, poor fit] | 
24 | COc1ccccc1OCC(=O)Nc1cccc(S(=O)(=O)NC2=NCCCCC2)c1 | inactive | 
25 | COc1cccc2c1Oc1ncccc1N(C(=O)CCC(=O)NCc1cccc(C)c1)C2 | inactive | 
26 | Cc1cn2c(=O)cc(COC(=O)c3ccc(NC(=O)C(C)Oc4ccccc4)cc3)nc2s1 (stereo not given) |  | inconclusive: 55.4% [activator]
27 | Cn1ccc2c(N3CCCCCCC3)cc3c(c21)C1CCC3O1 (stereo not given) | inconclusive: 17800 nM [activator, partial curve, poor fit] | 
28 | Fc1ccc(-c2noc3ncnc(N4CCN(c5ccccc5)CC4)c23)cc1 |  | inconclusive: 36.7% [activator]
29 | CC(=O)Nc1ccc(N=Cc2c(O)c(C(=O)Nc3ccccc3)cc3ccccc23)cc1 | inconclusive: 11200 nM [activator, partial curve, poor fit] | 
30 | S=C(Nc1ccccc1)Nc1ccccn1 |  | inconclusive: 33.7% [activator] [at 30.8 µM]
31 | COc1ccc(NC(=O)Cn2c(SCc3cc(C)ccc3C)nc3ccncc32)c(OC)c1OC | inconclusive: 20000 nM [activator, single point] | 
32 | Cc1cc(Cl)ccc1-n1c(CCC(=O)O)ccc1-c1cccs1 |  | inconclusive: 54.5% [activator]
33 | COc1ccc(C(=O)NC2CCCc3ccccc32)c(OC)c1OC (stereo not given) |  | inconclusive: 47.2% [activator] [at 30.8 µM]
34 | Cc1ccc(/C=C2\SC(=S)N(NS(=O)(=O)c3ccc(C)cc3)C2=O)cc1 |  | inconclusive: 26.9% [activator] [at 30.8 µM]
35 | CCc1cc(C(=O)c2ccc(OC)cc2)c(NC(=O)CC(C)(C)CC(=O)O)s1 | inactive | 
36 | CN(c1ccccc1)S(=O)(=O)c1cccc(Cl)c1Cl | inconclusive: 50.1 nM [activator, full curve, poor fit] | 
37 | CC1CC1c1ccc(/C=C(\C#N)C(=O)Nc2ccccc2Cl)o1 (stereo not given) |  | inconclusive: 50% [activator] [at 30.8 µM]
38 | COc1ccc(C(=O)c2ccc(OC)cc2OC)cc1 |  | inconclusive: 46.8% [activator] [at 30.8 µM]
39 | CCOc1cnc(-c2c(-c3c(Cl)cccc3Cl)noc2C)o1 |  | inactive: 12% [at 30.8 µM]
40 | Cc1cc(-c2ccc(F)cc2)n2ncc(-c3ccccc3)c2n1 | inactive | 
